{"source": "PubChem BioAssay AID1259308 (NCATS, 2017)", "test": "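Knock-downs that increase output of a recombinant reporter protein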 (primary screen)", "cell system": "human HEK293 embryonic kidney cells stably expressing firefly luciferase (HEK-CMV-Luc2-Hygro)", "knock-down reagent": "single siRNA against human genes, 0.8 pmol siRNA per well", "timing": "72 h", "detection": "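Reporter luminescence and viable-cell signal on separate replicate plates, given as percent of non-targeting control and median/MAD z-scores, plus per-cell luciferase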", "scale": "total luciferase, z-score: higher = more reporter protein produced", "call rule": "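Active when the median/MAD z-score for overall luciferase is greater than 3; a gene was taken forward for validation with new siRNAs if at least two of its three siRNAs passed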", "calls": "active = raised luciferase; inactive = no rise", "note": "The whole screen tested about 59,000 reagents; shown is a part drawn at random. Over the whole deposit, about 1,510 (2.6%) were called active. 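Calls use total luciferase alone and ignore viability, so some active siRNAs may act by altering cell number.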 Reagents against one gene are numbered here. Further read-outs or replicates are left out here."}
{"Target gene": "TBCD (GeneID 6904)", "reagent no.": 1, "total luciferase, z-score": -1.3, "call": "inactive"}
{"Target gene": "TBCD (GeneID 6904)", "reagent no.": 2, "total luciferase, z-score": -0.842, "call": "inactive"}
{"Target gene": "TBCD (GeneID 6904)", "reagent no.": 3, "total luciferase, z-score": 1, "call": "inactive"}
{"Target gene": "MYRF (GeneID 745)", "reagent no.": 1, "total luciferase, z-score": 2.51, "call": "inactive"}
{"Target gene": "MYRF (GeneID 745)", "reagent no.": 2, "total luciferase, z-score": 4.82, "call": "active"}
{"Target gene": "MYRF (GeneID 745)", "reagent no.": 3, "total luciferase, z-score": -0.0445, "call": "inactive"}
{"Target gene": "CFAP54 (GeneID 144535)", "reagent no.": 1, "total luciferase, z-score": -0.0974, "call": "inactive"}
{"Target gene": "CFAP54 (GeneID 144535)", "reagent no.": 2, "total luciferase, z-score": -1.05, "call": "inactive"}
{"Target gene": "CFAP54 (GeneID 144535)", "reagent no.": 3, "total luciferase, z-score": 0.22, "call": "inactive"}
{"Target gene": "CFAP54 (GeneID 144535)", "reagent no.": 4, "total luciferase, z-score": 0.216, "call": "inactive"}
{"Target gene": "CFAP54 (GeneID 144535)", "reagent no.": 5, "total luciferase, z-score": -0.637, "call": "inactive"}
{"Target gene": "CFAP54 (GeneID 144535)", "reagent no.": 6, "total luciferase, z-score": 1.66, "call": "inactive"}
{"Target gene": "CFAP54 (GeneID 144535)", "reagent no.": 7, "total luciferase, z-score": 0.655, "call": "inactive"}
{"Target gene": "CFAP54 (GeneID 144535)", "reagent no.": 8, "total luciferase, z-score": 0.396, "call": "inactive"}
{"Target gene": "CFAP54 (GeneID 144535)", "reagent no.": 9, "total luciferase, z-score": -0.416, "call": "inactive"}
{"Target gene": "DSG1 (GeneID 1828)", "reagent no.": 1, "total luciferase, z-score": -0.618, "call": "inactive"}
{"Target gene": "DSG1 (GeneID 1828)", "reagent no.": 2, "total luciferase, z-score": 0.299, "call": "inactive"}
{"Target gene": "DSG1 (GeneID 1828)", "reagent no.": 3, "total luciferase, z-score": -0.686, "call": "inactive"}
{"Target gene": "TMEM59 (GeneID 9528)", "reagent no.": 1, "total luciferase, z-score": -1.38, "call": "inactive"}
{"Target gene": "TMEM59 (GeneID 9528)", "reagent no.": 2, "total luciferase, z-score": -0.525, "call": "inactive"}
{"Target gene": "TMEM59 (GeneID 9528)", "reagent no.": 3, "total luciferase, z-score": 0.977, "call": "inactive"}
